Experimental data taken from PubChem BioAssay AID463116 (University of Pittsburgh Molecular Library Screening Center, 2010).
This is one part of the list. Shown are side measurements of this screen, not its main read-out; they come without a call. Most of these compounds were active or inconclusive in the main read-out, so they are no random draw.

Assay: blockers of dexamethasone-driven GR-EGFP nuclear import – imaging, high-content imaging, GR-EGFP cells, confirmation (AID 463116)
Conditions: 3617.4 GR-EGFP nuclear translocation imaging, dexamethasone-induced; measured here: cell count per field; at 20 µM
In the case of `CCc1sc(C(C2C(=O)CC(C)(C)CC2=O)C2C(=O)CC(C)(C)CC2=O)cc1[N+](=O)[O-]`, the z-score was -0.404.
For `COc1cccc(/C=C/C(=O)c2cccc([N+](=O)[O-])c2)c1`, the z-score was -0.44.
`COc1cc(NC(=O)Cn2ncc(Cl)c(Cl)c2=O)c(C)cc1[N+](=O)[O-]` showed a z-score of 0.0435.
For `Cc1ccc(C(=O)N/C(=C\c2ccc(-c3ccc(Cl)cc3)o2)C(=O)NCCCN(C)C)cc1`, the z-score was -5.27.
Work on `CC(C)N1C(=O)/C(=C/c2nc3ccccc3c(=O)n2-c2ccccc2)c2ccccc21` yielded a z-score of 0.587.
`Cc1ccc(C2=NN(C(=O)CCl)C(c3cccs3)C2)o1` (configuration not stated) showed a z-score of 0.237.
`O=C1C(Cl)=C(N2CCCCC2)C(=O)C(Cl)=C1c1cnc(N2CCCCC2)s1` showed a z-score of -0.951.
Compound `N#CCCS(=O)(=O)c1nnnn1-c1ccccc1` has a z-score of -1.09.
`Cc1ccc(S(=O)(=O)/N=C(\CCl)N2CCOCC2)cc1` gave a z-score of 0.779.
`COc1ccc(OC)c(CCNC(=O)Cn2sc3nc(C)cc(C)c3c2=O)c1` gave a z-score of -1.38.
Compound `COC(=O)c1cc(NC(=O)c2cccc(Cl)c2)c(=O)oc1/C=C/Nc1cc(C)cc(C)c1` has a z-score of 0.037.
Work on `O=C(/C=C\c1ccccc1OC(=O)c1ccccc1F)c1cc2ccccc2o1` yielded a z-score of -0.761.
In the case of `COc1cc(N2CCCC2)c(OC)cc1/C=C1/NC(=S)NC1=O`, the z-score was 0.298.
With `COc1cccc(C(=O)C(C#N)=C(SC)SC)c1` the z-score was 0.409.
Work on `Cc1ccccc1-n1sc2cc(F)ccc2c1=O` yielded a z-score of 0.688.
In the case of `Cc1ccccc1-n1nnnc1Sc1nnnn1-c1ccccc1`, the z-score was -0.393.
With `COc1ccc(Nc2ccccc2N)cc1` the z-score was -0.0262.
Compound `O=C(CCl)N(C/C=C/c1ccccc1)c1ccc2c(c1)OCCO2` has a z-score of 0.0574.
`CCCCCCc1cc2cc(C(=O)NC)c(=N)oc2cc1O` gave a z-score of 0.424.
With `O=C(O)c1ccc(NC2=C/C(=N/S(=O)(=O)c3ccccc3)c3ccccc3C2=O)cc1` the z-score was 0.214.
With `COc1cc(/C=C2/C(=O)c3cccc([N+](=O)[O-])c3C2=O)c(Br)cc1O` the z-score was -0.108.
`N#CC(C#N)=C1C=C2C=C(N3CCCCCC3)CCC2CC1` (configuration not stated) gave a z-score of 0.233.
In the case of `Cc1ccc(NN2C(=O)C=C(c3ccccc3)C2=O)cc1`, the z-score was 0.678.
For `CCOC(=O)c1cc(-c2ccc(/C=C3/C(=O)NC(=O)C(C#N)=C3C)o2)ccc1Cl`, the z-score was 0.391.
Work on `O=C1C=CC2C(c3ccc4c(c3)OCO4)CC1N2Cc1ccccc1` (configuration not stated) yielded a z-score of -0.0299.
Compound `O=[N+]([O-])/C=C/c1cn(Cc2ccccc2)c2ccccc12` has a z-score of 0.373.
`C#CC(=O)N(c1ccc(OC)cc1OC)C(C(=O)NC1CCCC1)c1cccs1` (configuration not stated) showed a z-score of 0.176.
Work on `CC1=NOC(=O)/C1=C\c1ccc(-c2ccc(Br)cc2)o1` yielded a z-score of 0.304.
Work on `O=S1(=O)C=C(Sc2nc3ccccc3s2)c2ccccc21` yielded a z-score of -0.38.
Work on `COc1cc2c(cc1OC)CN(CCC(=O)c1ccc(Br)cc1)CC2` yielded a z-score of 0.228.
With `Cc1nc2c(=O)n(C)c(=O)n(C)c2nc1Cl` the z-score was 0.676.
In the case of `Cc1cc(C(=O)CCl)c(C)n1Cc1ccco1`, the z-score was 0.371.
In the case of `COc1cc(/C=C2\COC/C(=C\c3ccc(O)c(OC)c3)C2=O)ccc1O`, the z-score was -0.00515.
`Clc1ccc(-c2csc3ncnc(Cl)c23)cc1` gave a z-score of 0.934.
Work on `CN(C)CCCn1c(SCC(=O)N2c3ccccc3Sc3ccccc32)nc2ccccc2c1=O` yielded a z-score of -6.66.
In the case of `O=C(Cn1ncc(Cl)c(Cl)c1=O)c1ccc(Cl)cc1`, the z-score was 1.13.
Work on `BrC(=C\c1ccccc1)/C=N/n1cnnc1` yielded a z-score of -0.00497.
`Nc1ccc2c3c(cccc13)C(=O)N(c1ccccc1)C2=O` gave a z-score of 0.564.
For `O=C(CCl)N(c1ccccc1)c1ccccc1`, the z-score was 0.159.
Compound `CC(C)N1C(=O)/C(=C\c2nc3ccccc3c(=O)n2-c2ccccc2)c2ccccc21` has a z-score of 0.246.
`O=[N+]([O-])c1ccc(N/N=C/c2ccc[nH]2)cc1` showed a z-score of 0.477.
`Nc1ncnc(Sc2ncccn2)c1[N+](=O)[O-]` gave a z-score of -0.901.
Compound `CC(c1ccccc1)N1CCN(C(=O)CCl)CC1` (configuration not stated) has a z-score of 0.351.
`Cc1ccc(C2=NOC(=O)/C2=C\c2ccc(C)o2)cc1` showed a z-score of 0.125.
For `COc1ccc(C(=O)c2sc3nc(C)cc(-c4cccs4)c3c2N)cc1OC`, the z-score was -0.414.
`Cc1cc(C)cc(Cn2ncc(Cl)c(Cl)c2=O)c1` gave a z-score of 0.386.
`O=C(/C=C/c1ccccc1)/C=C/c1ccccc1` showed a z-score of -0.232.
For `Cc1ccc(-c2nc3cnccn3c2Nc2ccccc2)o1`, the z-score was 0.547.
In the case of `N#C/C(=C/c1ccc(N2CCCCCC2)o1)c1ccc(F)cc1`, the z-score was 0.806.
`COc1ccc(Oc2ccc(/C=C/C(=O)c3ccc(O)cc3)cc2[N+](=O)[O-])cc1` gave a z-score of -0.45.
Work on `Cc1ccc(C(=O)OCn2ncc(Cl)c(Cl)c2=O)cc1` yielded a z-score of 0.00437.
Work on `COc1ccc(NC(=O)CC2Sc3ncnn3C2=O)cc1` (configuration not stated) yielded a z-score of 0.499.
Compound `O=C(Nc1ccc(N2CCN(C(=O)c3ccc(Cl)cc3)CC2)cc1)c1ccc([N+](=O)[O-])o1` has a z-score of 0.124.
In the case of `Cc1nc([N+](=O)[O-])c(Br)n1CC(=O)c1ccc(F)cc1`, the z-score was 0.326.
With `Cc1ccc2nc(Cl)c3nnnn3c2c1` the z-score was 0.433.
`O=C1C(Cl)=C(Nc2ccc3cn[nH]c3c2)C(=O)c2ccccc21` gave a z-score of 0.691.
`Cc1cccc(N(Cc2ccccc2)C(=O)CCl)c1` showed a z-score of 0.505.
`Cc1cc(-n2c(C)cc(C(=O)CCl)c2C)no1` showed a z-score of -0.0372.
In the case of `O=C1C=CC(=O)N1CCNc1ncc(C(F)(F)F)cc1Cl`, the z-score was 0.022.
`CNC(=O)c1nnsc1S(=O)(=O)c1ccc(Cl)cc1` showed a z-score of 0.058.
Compound `C#CC(=O)N(c1ccc(OC)c(OC)c1)C(C(=O)NC1CCCC1)c1cccs1` (configuration not stated) has a z-score of 0.893.
`Cc1cccc(CS(=O)(=O)c2nnc([C@H](Cc3ccccc3)NC(=O)OC(C)(C)C)o2)c1` gave a z-score of -0.732.
`CC[n+]1c(/C=C/C=C/N(C(C)=O)c2ccccc2)sc2ccccc21` gave a z-score of 0.344.
With `Cc1cc(C)c2c(=O)n(CC(=O)NCCCN3CCN(c4ccccc4F)CC3)sc2n1` the z-score was 0.701.
`Cc1ccc(C(=O)/C=C/c2ccccc2[N+](=O)[O-])cc1` showed a z-score of 0.256.
`O=C(/C=C/c1ccc(F)cc1)c1ccccc1Br` gave a z-score of 0.211.
Work on `COc1ccc(-c2cc(C(F)(F)F)nc(S(=O)(=O)CCCC(=O)Nc3cccnc3Cl)n2)cc1OC` yielded a z-score of 0.121.
In the case of `COc1cc(C2Oc3ccccc3C=C2[N+](=O)[O-])cc(OC)c1OC` (configuration not stated), the z-score was -0.401.
With `Cn1c(=O)[nH]c(=O)c2c1nc([N+](=O)[O-])n2Cc1ccccc1` the z-score was -0.66.
For `CCCc1nc2oc3c(Cl)ncnc3c2c2c1CCCC2`, the z-score was 0.363.
Compound `O=C1/C(=C/c2ccccc2[N+](=O)[O-])COc2ccccc21` has a z-score of -1.01.
With `Cc1ccc(SC(=O)c2c([N+](=O)[O-])c(C)nn2C)cc1` the z-score was 0.25.
With `COC1=C(C)C(O)=C(C(=O)/C=C/c2ccccc2)C(=O)C1(C)C` the z-score was 0.649.
Work on `Cc1ccc(C(=O)Oc2oc(-c3ccco3)nc2C=Nc2ccc(Cl)cc2)cc1` yielded a z-score of 0.107.
`CS(=O)(=O)c1ccc(C(=O)OCc2nnc(-c3ccccc3)o2)cc1[N+](=O)[O-]` showed a z-score of -1.01.
For `Cc1ccc(/C=C2\CCC3=C2OC(N)=C(C#N)C3c2ccc(C)cc2)cc1` (configuration not stated), the z-score was 0.5.
In the case of `Cc1cccc2cc3c(N)c(C(=O)N4CCc5ccccc54)sc3nc12`, the z-score was -0.276.
Work on `O=C(CCl)c1ccc2c(c1)CCN2C(=O)C1CC1` yielded a z-score of -1.12.
In the case of `CN1C(=S)N(c2cccnc2)C(=O)/C1=C\c1ccc(C(C)(C)C)cc1`, the z-score was -0.699.
Work on `C#CC(=O)N(c1cccc(OC)c1)C(C(=O)NC1CCCC1)c1cccs1` (configuration not stated) yielded a z-score of -0.134.
Work on `COc1cc2c(cc1OC)C(Cc1ccc(O)cc1)N(C)CC2` (configuration not stated) yielded a z-score of -0.255.
Compound `Cc1cc(C)nc(Sc2ncnc(N)c2[N+](=O)[O-])n1` has a z-score of 0.0701.
For `CC1(C)CC(=O)C2=C(C1)OC(N)=C(C#N)C2C#Cc1ccccc1` (configuration not stated), the z-score was 0.246.
For `COC(=O)c1scc(C)c1NC(=O)/C=C/C(=O)O`, the z-score was -0.119.
With `CC1C/C(=C/c2ccco2)C(=O)/C(=C/c2ccco2)C1` (configuration not stated) the z-score was -0.067.
`CCCCC1OC2(C)OC(=N)C1(C#N)C(C#N)(C#N)C2c1ccccc1` (configuration not stated) gave a z-score of 0.129.
Compound `CCN(C(=O)c1coc(=O)c(Br)c1)c1ccc2c(c1)OCO2` has a z-score of 0.543.
Work on `Cc1ccc(-c2cn3nc(-c4ccccc4)c(-c4ccccc4)nc3n2)cc1` yielded a z-score of 0.732.
`CCOC(=O)c1nc(S(C)(=O)=O)ncc1Cl` gave a z-score of -0.326.
With `Cc1cc(Sc2ncnc(N)c2[N+](=O)[O-])ncn1` the z-score was -0.444.
Work on `O=C(O)c1ccc(NC2=C(Cl)C(=O)c3ccccc3C2=O)cc1` yielded a z-score of 0.305.
`CCOC(=O)c1c(C)oc2c(F)c(F)c(F)c(F)c2c1=O` showed a z-score of 0.838.
In the case of `COC(=O)c1cc(=O)n(-c2ccccc2)c(=Nc2ccccc2)s1`, the z-score was 0.702.
`N=c1n(Cc2ccccc2)c2ccccc2n1CC(O)COc1ccc(Cl)cc1Cl` (configuration not stated) showed a z-score of -5.43.
Work on `CNCc1ccccc1Sc1cc(O)ccc1O` yielded a z-score of -0.609.
For `CCOC(=O)c1c(-c2ccc(C)o2)csc1NC(=O)CSc1nncs1`, the z-score was 0.142.
Compound `CCC1(C)CC2(CCCN(CCC(=O)c3ccccc3)C2)CCO1` (configuration not stated) has a z-score of 1.16.
In the case of `Cc1ccsc1/C=C/C1=Cc2c(sc(NC(=O)CSc3n[nH]c(N)n3)c2C#N)C(C)(C)C1`, the z-score was 0.688.
For `Cc1cnc(NC(=O)c2nn(C)cc2[N+](=O)[O-])s1`, the z-score was 0.237.
In the case of `COc1ccc(C(=O)CCN2CCN(c3ccccc3OC)CC2)cc1`, the z-score was -0.143.
For `COc1ccccc1N1C(=O)C=C(Sc2nc(C)cc(C)n2)C1=O`, the z-score was -0.451.
For `Clc1nc(CN2CCCCC2)nc2sc3c(c12)CCCC3`, the z-score was 0.497.
`COC(=O)c1ccc2c(c1)C(C)(C)C(/C=C/c1ccc(O)cc1)=[N+]2C` gave a z-score of -0.0884.
With `Cc1cc(C)c(C)c(S(=O)(=O)ON2C(=O)c3ccccc3C2=O)c1C` the z-score was 0.0888.
For `S=c1sc2c(Cl)ncnc2n1-c1ccccc1`, the z-score was -0.0932.
Work on `O=C(CCl)N(Cc1ccccc1)c1ccccc1` yielded a z-score of -0.266.
Compound `N#C/C(=C\c1cccs1)C(=O)c1ccccc1Cl` has a z-score of 0.723.
In the case of `Cc1ccc(/C=C/C(=O)NCC2COc3ccccc3O2)o1` (configuration not stated), the z-score was 0.0554.
For `N#C/C(=C/c1ccc(N2CCCCC2)o1)C(=O)Nc1ccc2ccccc2c1`, the z-score was 0.256.
`COc1ccc(-c2nnc(Sc3nc4ccccc4o3)c3ccccc23)cc1` showed a z-score of 0.00171.
`O=C(CCl)N(c1ccc(Cl)cc1)c1c[nH]c2ccccc12` gave a z-score of -0.446.
`COc1ccc(-n2nc(C#N)c(Cl)cc2=O)cc1` gave a z-score of -0.444.
